These are yes or no findings as the source states them, for the method shown. Binding seen in cells or lysates may run through a third protein. Binding calls can cover weak binding; strength is not graded here.

The target in this test is T1, glypican 4 (mouse (endogenous in APP/PS1 mouse brain)) (UniProt P51655).
T1 sequence: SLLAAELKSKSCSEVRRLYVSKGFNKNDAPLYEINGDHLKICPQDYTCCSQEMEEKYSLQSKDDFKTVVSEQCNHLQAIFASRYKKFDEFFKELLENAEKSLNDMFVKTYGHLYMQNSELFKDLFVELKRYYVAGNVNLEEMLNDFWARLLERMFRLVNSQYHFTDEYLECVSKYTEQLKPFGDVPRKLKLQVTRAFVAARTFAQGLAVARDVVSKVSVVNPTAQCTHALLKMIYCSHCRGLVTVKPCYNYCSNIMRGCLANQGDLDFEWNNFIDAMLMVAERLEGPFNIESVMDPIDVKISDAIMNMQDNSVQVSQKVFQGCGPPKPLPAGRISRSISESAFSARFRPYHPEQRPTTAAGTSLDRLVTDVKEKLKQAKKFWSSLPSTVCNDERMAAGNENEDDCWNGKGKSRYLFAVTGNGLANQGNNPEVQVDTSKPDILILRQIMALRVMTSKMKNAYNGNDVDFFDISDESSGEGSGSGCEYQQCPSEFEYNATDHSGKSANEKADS
As to the kind of experiment: co-IP; APP/PS1 mouse brain lysate (6-month-old mice, 4 mg protein, pre-cleared with protein G); IP with anti-Gpc4 antibody (1:100) and protein G beads overnight at 4°C; western blot for MOAB2 (Aβ42) and LRP1. (In general: Immunoblotting shows a protein as a band on a membrane.)

As for “low-density lipoprotein receptor-related protein 1”, the binding result is “binds”.
